Assay results from PubChem BioAssay AID330 (DTP/NCI, 2004).
The list does not hold the whole screen: it is rich in T/C values a quarter to a half above the control, in often repeated tests (any T/C) and in doses without a T/C. Further doses and runs are listed elsewhere. T/C: endpoint of the treated group in % of that of the vehicle group. Some doses have a count of surviving animals in place of a T/C: the source files T/C as zero there, which appears to mark a toxic dose or a test without result, not a measured value. Some doses without a T/C left all or most animals alive at the check, yet need not have been tolerated: survival well below the control is almost never listed, so the zero probably covers shortened survival too. Survivors were counted at the toxicity check, usually on the fifth day, unless a day is given; later deaths do not show. Schedules are NCI's codes, read here as Q, the interval in days (D) or hours (H), X, the number of doses. Some doses were run more than once; their values stand side by side, smallest first. For survival time, the PubChem record calls one and a half times the control and up active, and a quarter to a half above the control has no call in these data; cut-offs in other NCI protocols can differ. Some T/C values are followed by the survivors on the day toxicity was checked, most often the fifth; without a count, all were alive then.

Tested on: P388 leukemia ip, CD2F1 mice, survival T/C
Assay: NCI In Vivo Anticancer Drug Screen. Data for tumor model P388 Leukemia (intraperitoneal) in CD2F1 (CDF1) mice
Details: T/C endpoint: median survival time, higher T/C = longer survival
[1] = dose: 100.0 mg/kg/injection, schedule: Q01DX009 (ip), vehicle: saline with Tween-80
[2] = dose: 200.0 mg/kg/injection, schedule: Q01DX009 (ip), vehicle: saline with Tween-80
[3] = dose: 240.0 mg/kg/injection, schedule: Q01DX005 (ip), vehicle: saline with Tween-80
[4] = dose: 200.0 mg/kg/injection, schedule: Q04DX003 (ip), vehicle: saline with Tween-80
[5] = dose: 100.0 mg/kg/injection, schedule: Q01DX005 (ip), vehicle: Klucel (hydroxypropylcellulose) (HPC)
[6] = dose: 400.0 mg/kg/injection, schedule: Q01DX009 (ip), vehicle: saline

## COc1cc2c(c(OC)c1OC)-c1ccc(OC)c(=O)cc1C(NC(=O)COc1ccccc1)CC2 (stereo unspecified)
dose: 0.31 mg/kg/injection, schedule: Q01DX009 (ip), vehicle: Klucel (hydroxypropylcellulose) (HPC)
  T/C: 130 % of control
dose: 0.63 mg/kg/injection, schedule: Q01DX009 (ip), vehicle: Klucel (hydroxypropylcellulose) (HPC)
  T/C: 136 % of control
dose: 5.0 mg/kg/injection, schedule: Q01DX009 (ip), vehicle: Klucel (hydroxypropylcellulose) (HPC)
  survivor count: 5 of 6
dose: 10.0 mg/kg/injection, schedule: Q01DX009 (ip), vehicle: Klucel (hydroxypropylcellulose) (HPC)
  survivor count: 0 of 6
dose: 20.0 mg/kg/injection, schedule: Q01DX009 (ip), vehicle: Klucel (hydroxypropylcellulose) (HPC)
  survivor count: 0 of 6

## CCCCOC1OCN(CCC)CC1(C)C (stereo unspecified)
[1]
  T/C: 138 % of control [5 of 6 alive]
[2]
  T/C: 129 and 132 % of control
dose: 400.0 mg/kg/injection, schedule: Q01DX009 (ip), vehicle: saline with Tween-80
  survivor count: 4 of 6

## COC(=O)[C@@H]1[C@@H]2O[C@@H]2[C@H]2O[C@H]2[C@H]1C(=O)O
dose: 100.0 mg/kg/injection, schedule: Q01DX001 (ip), vehicle: Klucel (hydroxypropylcellulose) (HPC)
  survivor count: 6 of 6
dose: 200.0 mg/kg/injection, schedule: Q01DX001 (ip), vehicle: Klucel (hydroxypropylcellulose) (HPC)
  survivor count: 6 of 6

## Cc1nc(-c2ccccc2)oc1C(N)=O
dose: 200.0 mg/kg/injection, schedule: Q01DX009 (ip), vehicle: Klucel (hydroxypropylcellulose) (HPC)
  survivor count: 6 of 6

## CCCCN(CC(O)CNc1cc(OC)cc2cccnc12)C(C)CC (stereo unspecified)
dose: 50.0 mg/kg/injection, schedule: Q01DX005 (ip), vehicle: saline
  survivor count: 1 of 6
dose: 100.0 mg/kg/injection, schedule: Q01DX005 (ip), vehicle: saline
  survivor count: 0 of 6

## CC(/C=C/C1OC(=O)C=CC1C)=C\C(C)C/C=C/C(C)=C/C(C)C(=O)C(C)C(O)C(C)C/C(C)=C/C(=O)O (stereo unspecified)
dose: 25.0 micrograms/kg/injection, schedule: Q01DX005 (ip), vehicle: alcohol
  T/C: 144 % of control
dose: 25.0 micrograms/kg/injection, schedule: Q01DX005 (ip), vehicle: saline + alcohol
  T/C: 127 % of control
dose: 50.0 micrograms/kg/injection, schedule: Q01DX005 (ip), vehicle: alcohol
  T/C: 143 % of control
dose: 50.0 micrograms/kg/injection, schedule: Q01DX005 (ip), vehicle: saline + alcohol
  T/C: 133 % of control
dose: 50.0 micrograms/kg/injection, schedule: Q01DX005 (ip), vehicle: saline
  T/C: 135 % of control
dose: 100.0 micrograms/kg/injection, schedule: Q01DX005 (ip), vehicle: saline + alcohol
  T/C: 133 % of control
dose: 100.0 micrograms/kg/injection, schedule: Q01DX005 (ip), vehicle: saline
  T/C: 144 % of control [5 of 6 alive]
dose: 200.0 micrograms/kg/injection, schedule: Q01DX005 (ip), vehicle: saline + alcohol
  T/C: 147 % of control
dose: 200.0 micrograms/kg/injection, schedule: Q01DX005 (ip), vehicle: saline
  survivor count: 6 of 6
dose: 400.0 micrograms/kg/injection, schedule: Q01DX005 (ip), vehicle: saline
  survivor count: 0 of 6

## COc1ccc2c(c1)CC[C@@H]1[C@@H]2CC[C@@]2(C)[C@H]1CC[C@@]2(O)C(F)=C(F)F
dose: 400.0 mg/kg/injection, schedule: Q04DX003 (ip), vehicle: saline with Tween-80
  survivor count: 6 of 6

## CN1C2=CC=CC=CC2=[N+](C)C1C(=C=[N-])C#N (stereo unspecified)
dose: 120.0 mg/kg/injection, schedule: Q01DX005 (ip), vehicle: saline with Tween-80
  survivor count: 3 of 6
[3]
  survivor count: 0 of 6

## Cc1cc2ncn(CC(=O)O)c2cc1C
[4]
  survivor count: 3 of 6

## CN(C)CCN(C)C(=N)N
dose: 50.0 mg/kg/injection, schedule: Q01DX009 (ip), vehicle: saline
  survivor count: 6 of 6

## CC1CCCC(CC2CCCC[N-]2)[N-]1.CC1CCCC(CC2CCCC[N-]2)[N-]1.[Ni+2].[O-][Cl+3]([O-])([O-])O (stereo unspecified)
dose: 200.0 mg/kg/injection, schedule: Q01DX001 (ip), vehicle: saline
  survivor count: 2 of 6
dose: 400.0 mg/kg/injection, schedule: Q01DX001 (ip), vehicle: saline
  survivor count: 0 of 6

## CN1C2CCC1C(Br)C(=O)C2 (stereo unspecified)
dose: 200.0 mg/kg/injection, schedule: Q01DX005 (ip), vehicle: saline
  T/C: 127 and 128 % of control
dose: 400.0 mg/kg/injection, schedule: Q01DX005 (ip), vehicle: saline
  survivor count: 0 of 6 and 1 of 6

## CCN(CC)c1ccc(C(=N)c2ccc(N(C)C)cc2)cc1
[5]
  survivor count: 0 of 5
dose: 200.0 mg/kg/injection, schedule: Q01DX005 (ip), vehicle: Klucel (hydroxypropylcellulose) (HPC)
  survivor count: 0 of 5

## CC1OS(=O)(=O)CS(=O)(=O)OC1C (stereo unspecified)
[3]
  survivor count: 2 of 6

## O=C1C(Cl)=C(Oc2ccccc2Cl)C(=O)C(Cl)=C1Oc1ccccc1Cl
dose: 25.0 mg/kg/injection, schedule: Q01DX005 (ip), vehicle: Klucel (hydroxypropylcellulose) (HPC)
  survivor count: 6 of 6
dose: 50.0 mg/kg/injection, schedule: Q01DX005 (ip), vehicle: Klucel (hydroxypropylcellulose) (HPC)
  survivor count: 6 of 6

## O=C(c1ccc(F)cc1)c1no[n+]([O-])c1C(=O)c1ccc(F)cc1
dose: 150.0 mg/kg/injection, schedule: Q01DX009 (ip), vehicle: saline with Tween-80
  survivor count: 2 of 6

## CC1(C)SC(=O)C(=O)S1
dose: 400.0 mg/kg/injection, schedule: Q04DX003 (ip), vehicle: saline
  survivor count: 0 of 6

## COc1ccccc1N1CCN(CCc2c[nH]c3cc4c(cc23)OCO4)CC1
dose: 150.0 mg/kg/injection, schedule: Q01DX009 (ip), vehicle: Klucel (hydroxypropylcellulose) (HPC)
  survivor count: 2 of 6

## NC1=C(Cl)C(=O)C(Cl)=C(Cl)C1=O
dose: 3.13 mg/kg/injection, schedule: Q01DX009 (ip), vehicle: saline with Tween-80
  survivor count: 6 of 6
dose: 6.25 mg/kg/injection, schedule: Q01DX009 (ip), vehicle: saline with Tween-80
  survivor count: 2 of 6
dose: 12.5 mg/kg/injection, schedule: Q01DX009 (ip), vehicle: saline with Tween-80
  survivor count: 0 of 6
dose: 50.0 mg/kg/injection, schedule: Q01DX009 (ip), vehicle: saline with Tween-80
  survivor count: 0 of 6
[1]
  survivor count: 0 of 6
[2]
  survivor count: 0 of 6

## CN1c2ccccc2S(=O)(=O)n2c(-c3ccccc3Cl)nnc21
dose: 200.0 mg/kg/injection, schedule: Q01DX001 (ip), vehicle: saline with Tween-80
  survivor count: 6 of 6

## CC(C)(C)n1nc(C2CC2)cc1NC(=O)Nc1ccccc1
dose: 240.0 mg/kg/injection, schedule: Q01DX005 (ip), vehicle: Klucel (hydroxypropylcellulose) (HPC)
  survivor count: 6 of 6

## C=CCOCC1CO1 (stereo unspecified)
[4]
  T/C: 127 % of control
[6]
  survivor count: 2 of 6

## Cc1ccc(-n2c(=S)n(-c3ccccc3C)c3nc4ccccc4nc2/c3=N\Nc2ccccc2)cc1
[3]
  survivor count: 0 of 6

## N=c1nc(N)ncn1-c1ccccc1
dose: 6.25 mg/kg/injection, schedule: Q01DX005 (ip), vehicle: saline with Tween-80
  T/C: 139 % of control
dose: 25.0 mg/kg/injection, schedule: Q01DX005 (ip), vehicle: saline with Tween-80
  survivor count: 3 of 5
dose: 50.0 mg/kg/injection, schedule: Q01DX005 (ip), vehicle: saline with Tween-80
  survivor count: 0 of 5
dose: 100.0 mg/kg/injection, schedule: Q01DX005 (ip), vehicle: saline with Tween-80
  survivor count: 0 of 5
dose: 200.0 mg/kg/injection, schedule: Q01DX005 (ip), vehicle: saline with Tween-80
  survivor count: 0 of 5

## CCOC(=O)C(CNc1ccc(OCc2ccccc2)cc1)NC(=O)c1ccccc1 (stereo unspecified)
[6]
  survivor count: 6 of 6

## CCOc1ccc(C(/C(Cl)=N/O)C(Cl)(Cl)Cl)cc1 (stereo unspecified)
[5]
  survivor count: 3 of 6

## CC(=O)C1C(=O)C=C(C)OC1=O.CC(=O)C1C(=O)C=C(C)OC1=O.[Hg] (stereo unspecified)
dose: 12.5 mg/kg/injection, schedule: Q01DX009 (ip), vehicle: Klucel (hydroxypropylcellulose) (HPC)
  survivor count: 0 of 6
dose: 25.0 mg/kg/injection, schedule: Q01DX009 (ip), vehicle: Klucel (hydroxypropylcellulose) (HPC)
  survivor count: 0 of 6

## C/C(=N\N=c1\sc2ccccc2n1CC(=O)O)c1ccccc1
dose: 400.0 mg/kg/injection, schedule: Q01DX001 (ip), vehicle: saline with Tween-80
  survivor count: 3 of 6
